{"source": "PubChem BioAssay AID1224826 – NIAID, 2016", "assay": "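Knock-downs that raise or lower Tnf reporter signal after endotoxin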 (primary screen)", "system": "RAW264.7 G9 macrophages from mouse bearing reporters for p65 (GFP) and the Tnf promoter (mCherry)", "reagent": "siRNA pool against mouse genes, 100 nM", "time to read-out": "16 h of LPS stimulation, after 2 days of siRNA transfection", "challenge": "bacterial lipopolysaccharide (Salmonella minnesota R595), 10 ng/ml", "detection": "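Imaged Tnf reporter mCherry in nuclei, minus background, normalised per plate to the median and expressed as robust z-scores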", "scale": "Tnf reporter robust z-score: higher = stronger Tnf promoter reporter signal after LPS", "call rule": "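a well counts as active at a score of -1.3 or below (Tlr4 knock-down control median) or above 3 (raised signal); controls and wells holding fewer than 50 cells are excluded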", "meaning of the calls": "active = Tnf reporter clearly lowered or raised; inactive = no clear change in Tnf reporter", "note": "In all, the deposit lists about 17,000 reagents; shown is a random part of them. About 1,110 of them (6.6%) count as active. 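Active means lowered or raised reporter signal; replicate intensities are raw and not normalised per plate.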 Further read-outs or replicates are left out here."}
{"target gene": "Zfp467", "Tnf reporter robust z-score": 1.91, "fewer than 50 cells in well": "enough cells in well", "activity call": "inactive"}
{"target gene": "Efna2", "Tnf reporter robust z-score": 0.5, "fewer than 50 cells in well": "enough cells in well", "activity call": "inactive"}
{"target gene": "Ogg1", "Tnf reporter robust z-score": -0.31, "fewer than 50 cells in well": "enough cells in well", "activity call": "inactive"}
{"target gene": "Fkbpl", "Tnf reporter robust z-score": -0.06, "fewer than 50 cells in well": "enough cells in well", "activity call": "inactive"}
{"target gene": "Cacna1c", "Tnf reporter robust z-score": 0.51, "fewer than 50 cells in well": "enough cells in well", "activity call": "inactive"}
{"target gene": "Ei24", "Tnf reporter robust z-score": -0.6, "fewer than 50 cells in well": "enough cells in well", "activity call": "inactive"}
{"target gene": "Ms4a4d", "Tnf reporter robust z-score": 0.39, "fewer than 50 cells in well": "enough cells in well", "activity call": "inactive"}
{"target gene": "Phlda2", "Tnf reporter robust z-score": -0.16, "fewer than 50 cells in well": "enough cells in well", "activity call": "inactive"}
{"target gene": "Cdrt4", "fewer than 50 cells in well": "fewer than 50 cells per well; well left out of calls", "activity call": "inactive"}
{"target gene": "Dio3", "Tnf reporter robust z-score": -0.56, "fewer than 50 cells in well": "enough cells in well", "activity call": "inactive"}
{"target gene": "Defa20", "fewer than 50 cells in well": "fewer than 50 cells per well; well left out of calls", "activity call": "inactive"}
{"target gene": "Atg14", "Tnf reporter robust z-score": -0.81, "fewer than 50 cells in well": "enough cells in well", "activity call": "inactive"}
{"target gene": "Ube2l3", "Tnf reporter robust z-score": 0.91, "fewer than 50 cells in well": "enough cells in well", "activity call": "inactive"}
{"target gene": "Klf11", "Tnf reporter robust z-score": 0.6, "fewer than 50 cells in well": "enough cells in well", "activity call": "inactive"}

Copied from the entries so far (2 entries):
{"target gene": "Ei24", "Tnf reporter robust z-score": -0.6, "fewer than 50 cells in well": "enough cells in well", "activity call": "inactive"}
{"target gene": "Ms4a4d", "Tnf reporter robust z-score": 0.39, "fewer than 50 cells in well": "enough cells in well", "activity call": "inactive"}
